Laboratory results as given in PubChem BioAssay AID504444 (National Center for Advancing Translational Sciences (NCATS), 2011).
In all, about 360,000 compounds went through this assay and about 7,500 (2.1%) were called active. Inconclusive results, whose numbers are uncertain, are shown with a selection of clear calls. Calls follow the shape of the dose curve; as a rule, active = well fitted inhibition curve with a large enough effect; inconclusive = small, poorly fitted or top-dose-only effect, or effect the other way; inactive = flat fitted curve, though single readings scatter. Potencies of inconclusive entries are doubtful fits and often do not repeat.

assay: Nrf2 qHTS screen for inhibitors; conditions: A549 ARE-Fluc reporter, luciferase luminescence, 18-24 h; activity change, negative = inhibition: at 46 µM (top of the series); also: nearly all actives have a fitted effect of over 60% in size
How it was run: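 A549 ARE_Fluc cells, 5000/well, 5% FBS OPTI-MEM; compounds in dose-response, 18-24 h at 37 °C/5% CO2; CellTiter-Fluor viability read (Ex 405/Em 525), then BugLite luciferase luminescence = Nrf2 activity.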
% is scaled to controls: 0 for no effect and ±100 for the full control effect; potency is read from the fitted curve at half-maximal effect.

Row | SMILES | Potency | activity change, negative = inhibition
1 | CC(=O)N1N=C(c2cccnc2)CC1c1ccccc1O (configuration not stated) | inconclusive: 11.6 µM [falling, partial curve, poor fit] | 
2 | COC(=O)C1=C(c2ccc(F)cc2OCc2ccccc2)C[C@@H]2CC[C@H]1N2C(=O)NCc1ccccc1OC | inconclusive: 29.1 µM [falling, single point] | 
3 | CC1=C(C(=O)O)N2C(=O)C(NC(=O)c3nn(C)cc3[N+](=O)[O-])C2SC1 (configuration not stated) | inconclusive: 3.26 µM [activator, partial curve, poor fit] | 
4 | C=C[C@@H]1C2=CCOC(=O)C2=CO[C@H]1O[C@@H]1O[C@H](CO)[C@@H](O)[C@H](O)[C@H]1O |  | inactive: -1.36%
5 | Cc1ccc2nc(Cl)c(-c3ccccc3)cc2c1 | inconclusive: 6.51 µM [activator, partial curve, poor fit] | 
6 | O=C(C[N+]12CCC(CC1)C(CO)C2)c1ccc(Br)cc1 (configuration not stated) | inconclusive: 14.6 µM [activator, single point] | 
7 | Clc1ccc(N2CC2c2ccncc2)cc1 (configuration not stated) |  | inactive: 5.15%
8 | COCCO[C@H]1CC[C@@]2(C)C(=CCC3C2CC[C@@]2(C)C3CC[C@]2(C)O)C1 (some centres not stated) |  | inactive: -23.6%
9 | Cc1cn2c(=O)cc(COC(=O)c3ccccc3F)nc2s1 | inconclusive: 29.1 µM [activator, single point] | 
10 | O=c1cccc2n1C[C@H]1C[C@@H]2CN2CCCC[C@@H]12 |  | inactive: 11.1%
11 | C=Cn1ccnc1P(=S)(c1nccn1C=C)C1CCCCC1 | inconclusive: 2.31 µM [falling, partial curve, poor fit] | 
12 | O=P(OC1CCCCC1)(OC1CCCCC1)C(O)c1ccc(Cl)cc1Cl (configuration not stated) | inconclusive: 18.4 µM [falling, single point] | 
13 | Cc1ccc(NC(=O)N2CC2)cc1NC(=O)N1CC1 | inconclusive: 29.1 µM [activator, single point] | 
14 | CCOC(=O)c1c(C)[nH]c(C)c1S(=O)(=O)NCC(=O)N1CCN(c2cc(Cl)ccc2C)CC1 | inconclusive: 29.1 µM [falling, single point] | 
15 | CC12CCC3C(CCC4(O)CC(O)CCC34C=NO)C1(O)CCC2C1=COC(=O)C1 (configuration not stated) | active: 0.058 µM | 
16 | Nc1nc2n(n1)C(c1cccs1)CC(c1ccc(Br)cc1)N2 (configuration not stated) | inconclusive: 0.517 µM [falling, full curve, poor fit] | 
17 | CCC(=NCc1ccco1)c1c(O)n(C2CCCCC2)c(=O)[nH]c1=O | inconclusive: 29.1 µM [falling, single point] | 
18 | N#Cc1cc2c(nc1SCC(=O)Nc1cccc(F)c1)C1CCN2CC1 | inconclusive: 29.1 µM [falling, single point] | 
19 | Cc1nc2ccccc2c(=O)n1-c1cc([N+](=O)[O-])cc([N+](=O)[O-])c1 | inconclusive: 2.59 µM [activator, partial curve, poor fit] | 
20 | Cc1cc(C)cc(NC(=O)Cn2c(=O)oc3cc(S(=O)(=O)N4CC(C)CC(C)C4)ccc32)c1 (configuration not stated) | inconclusive: 29.1 µM [falling, single point] | 
21 | OC(COCc1ccc(Cl)cc1)CN1CC=C(c2ccccc2)CC1 (configuration not stated) | inactive | 

Row | SMILES | Potency | activity change, negative = inhibition
22 | CC(Oc1cc2oc(=O)c3c(c2cc1Cl)CCCC3)C(=O)NCc1ccccn1 (configuration not stated) | inconclusive: 29.1 µM [falling, single point] | 
23 | O=CC1=C(N2CCOCC2)/C(=C\c2ccccc2)CC1 | inconclusive: 20.6 µM [activator, single point] | 
24 | CCC[N+]12CCC(CC1)C(C(O)(c1ccccc1)c1ccccc1)C2 (configuration not stated) |  | inactive: 3.75%
25 | CCCCCn1c(=O)c(C(=O)NCc2ccco2)c(O)c2ccccc21 | inconclusive: 16.4 µM [falling, single point] | 
26 | O=P(Nc1ccccc1)(Nc1ccccc1)Oc1ccccc1 |  | inactive: -16.3%
27 | CC1(C)Cc2c(c(N3CCOCC3)nc3sc4c(NCc5ccccc5)nnnc4c23)CS1 | active: 2.59 µM | 
28 | Cc1ccc(-c2nc3ccccc3c(=O)n2-c2cc(C)ccn2)cc1 | inconclusive: 20.6 µM [activator, single point] | 
29 | CC=C(C)C(=O)OC1CCN2CC=C(COC(=O)C(O)(C(C)OC)C(C)(C)O)C12 (configuration not stated) |  | inactive: -9.73%
30 | Cc1ccc(Cn2c(SCc3ccc(C(=O)NC4CCCC4)cc3)nc3ccncc32)cc1 | inconclusive: 16.4 µM [falling, single point] | 
31 | CCN(CC)C(=O)c1ccc(NC(=O)CSc2nnnn2-c2cc(OC)ccc2OC)cc1 | inconclusive: 16.4 µM [falling, partial curve, poor fit] | 
32 | CCOP(=O)(CCP(=O)(OCC)OCC)OCC.C[CH2][Sn]([Cl])([Cl])[CH2]C | inconclusive: 29.1 µM [falling, partial curve, poor fit] | 
33 | CCOC(=O)C1CCN(/C=C2\C(=O)NC(=S)N(CC)C2=O)CC1 | inconclusive: 5.8 µM [activator, full curve] | 
34 | CC(C)(O)/C=C/C(=O)[C@](C)(O)C1[C@H](O)C[C@@]2(C)C3CC=C4C(C[C@H](O)[C@@H](O)C4(C)C)[C@]3(C)C(=O)C[C@]12C (some centres not stated) | active: 0.411 µM | 
35 | CCOc1ccccc1N=C1SCCCN1C |  | inactive: 7.16%
36 | N=C1c2ccccc2CN1c1ncccn1 | inconclusive: 3.26 µM [falling, partial curve, poor fit] | 
37 | COC(=O)C1=C(c2ccc(-c3ccccc3)c(F)c2)C[C@@H]2CC[C@H]1N2C(=O)NCc1ccco1 | active: 14.6 µM | 
38 | COC(=O)C1=C(c2ccc(F)cc2OCc2ccccc2)C[C@@H]2CC[C@H]1N2C(=O)NCCCc1ccccc1 | active: 16.4 µM | 
39 | COc1ccc2nc3c(C)n(C)ccc-3c2c1 | inconclusive: 11.6 µM [falling, partial curve] | 
40 | Cn1cc(C(=O)OCC(=O)N2CCCC2)c2ccccc21 |  | inactive: 5.8%
41 | Cc1nc2ccccn2c1P(=S)(N1CCCCC1)N1CCCCC1 | inconclusive: 29.1 µM [falling, partial curve, poor fit] | 
42 | CCc1nn(CC(=O)N2CCN(Cc3ccc4c(c3)OCO4)CC2)c(=O)c2cc3occc3n12 | inconclusive: 23.1 µM [falling, partial curve, poor fit] | 

Looked up above.
Value for CCOC(=O)c1c(C)[nH]c(C)c1S(=O)(=O)NCC(=O)N1CCN(c2cc(Cl)ccc2C)CC1 under Potency: inconclusive: 29.1 µM [falling, single point]
Value for CC=C(C)C(=O)OC1CCN2CC=C(COC(=O)C(O)(C(C)OC)C(C)(C)O)C12 (configuration not stated) under activity change, negative = inhibition: inactive: -9.73%
